The results in this text go back to ChEMBL document CHEMBL4296182, “CO-ADD screening of NIH NCI Diversity Set V”.

The other results are listed elsewhere or left out. Entries with a potency or affinity are not part of this list.

This test has as its system Pseudomonas aeruginosa. As to conditions: Concentration 20 uM; ASSAY_TEST Inhibition of Bacterial Growth; detection method Absorption (OD600); MEDIA CAMHB; plate type 384well; NBS; CORNING #3640; time 18 hr.
In general, Inhibition refers to the drop in the measured response relative to a control, in per cent. On to `Cn1c(=O)c2c(nc(Cc3ccc(N)cc3)n2C)n(C)c1=O`, for which the Inhibition came out at 10.27%.

With `O=c1nc(Nc2cccc(Cl)c2)oc2cc(Cl)oc(=O)c12`, the Inhibition turned out to be 11.19%.

Turning to `CC1CN(CCN2CC(C)N(C=O)CC2C)C(C)CN1C=O` (configuration not stated), the Inhibition is listed as -7.9%.

In the case of `NS(=O)(=O)c1ccc(/N=N/c2c(O)c(C(=O)O)cc3ccccc23)cc1`, the Inhibition is 6.38%.

As to `O=C(O)c1ccccc1-c1ccccc1C(=O)Nc1ccc2oc(=O)c3ccccc3c2c1`, the Inhibition is on record as -13.38%.

For `CCCN=C(S)Nc1ccccc1`, the Inhibition is reported as -18.98%.

As to `CCOc1ccc(S(=O)(=O)c2ccc(C)cc2)c2c1no[n+]2[O-]`, the Inhibition is recorded as 32.04%.

For the compound `c1ccc2c(c1)cnc1ccccc12` [PHENANTHRIDINE], the Inhibition is -3.52%.

Regarding `Cc1cccc(C(O)C(O)c2cccc(C)n2)n1` (configuration not stated), the Inhibition came to 11.58%.

With `O=S(=O)(O)c1ccc(/N=N/c2ccccc2)cc1`, the Inhibition was 2.86%.

On to `CCCNC(=O)c1ccccc1C(=O)NC1(C(=O)NCCC)CCCC1`, for which the Inhibition came to 17.28%.

For the compound `O=C(/C=C/c1ccc(Cl)s1)c1ccc(Cl)s1`, the Inhibition is 3.32%.

As to `CCc1noc2cc(-c3ccccc3)n(C)c(=O)c12`, the Inhibition is given as -4.85%.

`N=C(N)NC(=S)Nc1ccc(Cl)cc1`: the Inhibition is 1.42%.

For `CCN(CC)CCN1c2ccccc2Sc2ccc3ccccc3c21`, the Inhibition came to 29.3%.

Turning to `Cc1cccc(N2CCN(CC(O)COc3ccc(Cl)cc3)CC2)c1` (configuration not stated), the Inhibition is recorded as 20.92%.

Regarding `c1ccc(-c2nnc3nc(N4CCCCC4)nc(N4CCCCC4)n23)cc1`, the Inhibition is 20.3%.

Regarding `CCCCOC(=O)c1cccnc1`, the Inhibition is 17.52%.

Consider `COC(=O)[C@H]1[C@H]2C[C@@H]3c4[nH]c5cc(OC)ccc5c4CCN3C[C@H]2C[C@@H](OC(=O)CC(C)=O)[C@@H]1OC`, for which the Inhibition was determined as 18.08%.

As to `CCOC(=O)N1CCc2cc(OC)c(OC)c3c2c1cc1cc(OC)c(OC)cc13`, the Inhibition is on record as 22.81%.

For `C=CCSC(CC)(CC)C(N)=O`, the Inhibition is recorded as -6.33%.

Take `O=C1CSC(=S)N1/N=C/c1c[nH]c2ccc(Br)cc12`: the Inhibition worked out at 7.67%.

Regarding `CCCCCOc1ccc(N2C(=O)C(C)CNC2=S)cc1` (configuration not stated), the Inhibition is recorded as 22.16%.

For `Cc1cc2nc3ccc(N(C)C)cc3[s+]c2cc1N.[Cl-]` [TOLONIUM CHLORIDE], the Inhibition came to 11.43%.

As for `CCSc1nc(O)cc(O)n1`, the Inhibition worked out at 20.7%.

For the compound `NC(=O)C1=C(N)c2ccccc2C1c1ccccc1` (configuration not stated), the Inhibition is -32.43%.

As to `Nc1nc(SCc2ccccn2)c2ncn(C3OC(CO)C(O)C3O)c2n1` (configuration not stated), the Inhibition came out at 30.09%.

For the compound `O=C(O)c1cc(Cl)nnc1O`, the Inhibition is 20.17%.

For `CCOC(=O)Cn1nc2oc(=O)c(CCN3CCN(c4ccccc4OC)CC3)c(C)c2c1C`, the Inhibition came out at 19.88%.

On to `NS(=O)(=O)c1ccc(Nc2ccccc2)c([N+](=O)[O-])c1`, for which the Inhibition was -9.27%.

In the case of `Cc1nc(O)c(Cc2ccccc2O)c(-c2ccccc2)n1`, the Inhibition is on record as 12.19%.

On to `Oc1ccc(/N=N/c2nccs2)c(O)c1`, for which the Inhibition is listed as -6.73%.

For `Sc1ncc2cnccn12`, the Inhibition was 17.31%.

Regarding `COC(=O)C1(C(=O)OC)C2C(=O)C3C(C21)C3(C(=O)OC(C)(C)C)C(=O)OC(C)(C)C` (configuration not stated), the Inhibition was 11.1%.

As for `O=C1/C(=N\c2cccc(Cl)c2)CC(c2ccc(Cl)cc2)N1c1cccc(Cl)c1` (configuration not stated), the Inhibition stood at 20%.

In the case of `CCN(CC)CCNc1c(C)nc(C#N)c(N)[n+]1[O-]`, the Inhibition is recorded as 11.42%.

On to `N#CNC(=N)c1ccccc1`, for which the Inhibition is listed as -11.62%.

On to `OCC(O)C1OCOC(C(O)CO)C1O` (configuration not stated), for which the Inhibition worked out at 5.9%.

On to `COc1ccc2c(c1)CCCN2C(=N)Nc1ccc(Cl)cc1`, for which the Inhibition is on record as -10.18%.

For `Nc1ccc(/N=N/c2ccccc2)c2ccccc12`, the Inhibition is on record as 17.01%.

With `COc1cc2c(c(OC)c1O)C(=O)CO2`, the Inhibition is -6.35%.

Consider `O=C(Nc1nc2ccccc2s1)Nc1ccc([N+](=O)[O-])cc1Cl`, for which the Inhibition was -4.27%.

As for `Cc1ccc(C#CC(C)(O)C(C)(C)C)cn1` (configuration not stated), the Inhibition was determined as 6.13%.

On to `CCOC(=O)Cc1cc(=O)[nH]n(-c2ccccc2)c1=O`, for which the Inhibition is 7.36%.

As for `COc1cccc(OCC(O)CN2CCN(c3ccccc3)CC2)c1` (configuration not stated), the Inhibition was 9.38%.

With `Cc1cc(NC(=O)NC(=O)c2ccccc2NC(=O)C(C)N)ccc1Oc1ncc(Br)cn1.Cl` (configuration not stated), the Inhibition is listed as 16.64%.

Consider `Cc1ccc([N+](=O)[O-])cc1NC(=O)Nc1ccc(S(N)(=O)=O)cc1`, for which the Inhibition came to 10.86%.

As for `Cc1n[nH]c2c([N+](=O)[O-])c(=O)[nH]c(=O)n12`, the Inhibition was determined as 13.09%.

Regarding `Cc1ccc(-c2nc(-c3nccc4ccccc34)oc2-c2ccccc2)cc1`, the Inhibition amounted to 20.54%.

As for `O=[N+]([O-])c1ccc(/C=C\c2ccncc2)cc1`, the Inhibition was -10.78%.

Regarding `CCOC(=O)Cc1cnc(S)nc1O`, the Inhibition is reported as 11.95%.

`c1ccc2[nH]c(-c3ccncc3)nc2c1`: the Inhibition came to 18.79%.

With `O=C(c1ccc(Cl)nc1)c1cccs1`, the Inhibition is on record as -5.25%.

On to `O=C(O)c1cnn2c(S)ncnc12`, for which the Inhibition came out at 8.68%.

In the case of `O=C(Nc1cccnc1)c1cccc([N+](=O)[O-])c1`, the Inhibition is given as 8.42%.

For the compound `O=C(O)/C=C\C(=O)Nc1ccc(-c2ccccc2)cc1`, the Inhibition is -8.8%.

On to `N#CCc1cnc2ccccc2n1`, for which the Inhibition was determined as 5.42%.

`COc1ccc(/N=C\c2c(O)ccc3c2oc2cc(Cl)c(O)c(Cl)c23)cc1`: the Inhibition is on record as -16.44%.

Regarding `Clc1ccc(-c2c(C3=NCCCN3)nnn2-c2ccc(Cl)cc2)cc1`, the Inhibition is recorded as 21.75%.

For `O=C(NC1CCCCC1)c1cc2ccccc2cc1O`, the Inhibition amounted to 18.91%.

Turning to `O=C(Oc1ccccc1)c1cccc2cccc(C(=O)Oc3ccccc3)c12`, the Inhibition was 16.62%.

With `CN(C)c1ccc(/N=N\c2cccc3ccoc23)cc1`, the Inhibition is listed as -10.86%.

Regarding `CSc1cccc(NC(=O)Nc2nc3c(C)cccc3s2)c1`, the Inhibition is listed as 26.87%.

Turning to `CCOC(=O)CSc1nc2nc(Cl)c(Cl)[nH]c-2n1`, the Inhibition is recorded as 15.29%.

`O=c1oc(-c2ccccc2)c(-c2ccccc2)c2ccccc12`: the Inhibition amounted to 7.75%.

For `c1ccc(-c2ccc3c(c2)NCCN3)cc1`, the Inhibition turned out to be 4.99%.

Turning to `CN(C)CCCn1c2c3ccccc3ccc2c2oc(=O)c3ccccc3c21.Cl`, the Inhibition is listed as 17.25%.

Take `Cc1cc(O)c2c(C)ccc(C)c2n1`: the Inhibition amounted to 10.71%.

With `COc1ccc(CN2CCOC2=O)cc1OC`, the Inhibition is 18.68%.

Take `Cc1ccc(C(C)C)cc1NC(=O)Nc1ccc([N+](=O)[O-])cc1`: the Inhibition is on record as 4.36%.

Turning to `Cc1cc(=O)oc2cc(OS(C)(=O)=O)ccc12`, the Inhibition came to 7.55%.

Take `N#CC1C=Cc2c(ccc3ccccc23)N1C(=O)c1ccccc1` (configuration not stated): the Inhibition came out at 13.5%.

Take `c1ccc(-c2ccc(-c3nccc4ccccc34)[nH]2)cc1`: the Inhibition is listed as 6.83%.

Turning to `O=C(O)Cc1ccc(/N=N/c2c(O)c(C(=O)O)cc3ccccc23)cc1`, the Inhibition is reported as 13.8%.

Turning to `C(=C\c1ccccn1)/c1ccccn1`, the Inhibition is on record as -13.05%.

As for `Oc1ccccc1-n1c(-c2ccccc2)ccc1-c1ccccc1`, the Inhibition was found to be 17.11%.

With `C=CCOc1ccnc(-c2ccccc2)n1`, the Inhibition was found to be 2.21%.

On to `N#C/C(=C\c1ccc[nH]1)C(=O)c1ccccc1`, for which the Inhibition amounted to 11.69%.

With `Cn1cnc([N+](=O)[O-])c1Sc1n[nH]c(N)n1`, the Inhibition worked out at 2.77%.

For the compound `COc1ccc2nc3cc(Cl)ccc3c(C#N)c2c1`, the Inhibition came to 8.17%.

`Nc1n[nH]c(-c2ccccc2)n1`: the Inhibition is 24.19%.

Take `Clc1nc(Oc2ccccc2)nc(-c2cn(-c3ccccc3)c3ccccc23)n1`: the Inhibition is 25.42%.

Take `c1ccc(-c2nnc(-c3ccccn3)s2)nc1`: the Inhibition was determined as 10.55%.

For `Cc1ccc(/N=N/c2c(N)nn(-c3ccccc3)c2N)cc1`, the Inhibition worked out at 6.54%.

For `Cc1cc(NC(=O)c2ccccc2)c(Cl)cc1N`, the Inhibition was found to be 8.57%.

In the case of `O=C(c1ccc(O)cc1)c1ccc(C(=O)c2ccc(O)cc2)cc1`, the Inhibition amounted to 21.13%.

For the compound `Cc1cccc2c1c1ccc3c(c1n2C)C(=O)C=CC3=O`, the Inhibition was 11.97%.

For the compound `CCNC(=O)Oc1cccnc1O`, the Inhibition was found to be 18.32%.

With `COC(=O)C1=C(C(=O)OC)[C@@H]2CCC[C@H]1[C@H]1[C@@H]2N=NN1c1ccccc1`, the Inhibition is 15.52%.

For the compound `CCN(CC)CCN1C(=O)c2cccc3cc(N)cc(c23)C1=O`, the Inhibition is recorded as 31.06%.

Take `Nc1c(Cl)cc(S(N)(=O)=O)cc1S(N)(=O)=O`: the Inhibition turned out to be 5.19%.

For `COc1c(NC(C)=O)c2ccccc2c2ccccc12`, the Inhibition turned out to be 12.04%.

Turning to `c1ccc2c(c1)[nH]c1c3ccccc3sc21`, the Inhibition is listed as -1.82%.

As for `COc1cc(/N=N/c2ccccc2C(=O)O)ccc1O`, the Inhibition was 6.71%.

Turning to `NC(=O)Oc1cccc(OC(N)=O)c1`, the Inhibition turned out to be 3.09%.

With `CC(C)(C)N1CC(OC(N)=O)C1`, the Inhibition turned out to be 11.94%.

On to `CCCOc1ccc(-c2nc(-c3ccc([N+](=O)[O-])cc3)cs2)cc1`, for which the Inhibition is reported as 20.27%.

For `O=[N+]([O-])c1ccccc1CSc1nc(O)c2nc[nH]c2n1`, the Inhibition is reported as 20.96%.

For the compound `Cc1ccc(C)c(C(=O)CCC(=O)O)c1`, the Inhibition turned out to be 5.34%.

For the compound `O=C1c2ccccc2C(=Cc2cccnc2)c2ccccc21`, the Inhibition came to 23.29%.

`Cc1cc(N(C)C)ccc1/N=N/c1ccc2ncccc2c1`: the Inhibition is listed as 6.87%.

As to `O=S1(=O)CSCS(=O)(=O)C1`, the Inhibition was -32.43%.

For the compound `COc1c(NC=O)c2c(c([N+](=O)[O-])c1OC)C(=O)OC2`, the Inhibition was determined as 7.87%.

For the compound `COc1ccc(OCC(O)CN2CCN(c3ccc(Cl)cc3)CC2)cc1` (configuration not stated), the Inhibition came to 30.78%.

On to `Cc1nc2ccc(N)nc2nc1C`, for which the Inhibition is listed as 22.15%.

Regarding `Cc1ccc(S(=O)(=O)CCOC(=O)CNC(=O)OCc2ccccc2)cc1`, the Inhibition came out at 21.58%.

As to `Nc1ccnn1-c1ccccc1`, the Inhibition is 11.96%.

With `CCCN(CCC)CC(=O)N1CC(=O)Nc2ccccc21`, the Inhibition is -8.57%.

Regarding `Oc1cc(-c2ccc(Cl)cc2)nc2ccccc12`, the Inhibition amounted to 4.43%.

Regarding `COc1ccc(-c2cc3ccccc3[nH]2)cc1`, the Inhibition came to 16.23%.

For the compound `O=c1[nH]c(=S)c2ncn(-c3ccccc3)c2[nH]1`, the Inhibition was -0.61%.

With `CCC(C)NC(=O)CC(C)C` (configuration not stated), the Inhibition was determined as 27.39%.
